Measured values published in PubChem BioAssay AID587 (National Center for Advancing Translational Sciences (NCATS), 2007).
Out of some 59,000 compounds screened, about 35 (0.06%) were called active. Inconclusive results, whose numbers are uncertain, are shown with a selection of clear calls. Rule as the data show it: active = max dye-equivalent concentration above about 10 nM; inconclusive = between about 1.1 nM and that limit; inactive = weaker than that.

Assay: qHTS Assay for Spectroscopic Profiling in Texas Red Spectral Region
Conditions: Compound fluorescence, Texas Red channel, 547/618 nm; hits give high values
Outline: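 Spectral interference profiling: each compound concentration's relative fluorescence, read with a 547 nm excitation and 618 nm emission filter pair, was normalized to a per-plate Texas Red standard curve.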

| SMILES | max dye-equivalent concentration |
| --- | --- |
| CC12CN3CC(C)(CN(C1)C3c1ccc(Br)cc1)C2 (centres undefined) | inconclusive: 3.4 nM |
| CC(=O)Nc1ccc(S(=O)(=O)N2CCN(c3cc(C)nc4ccccc34)CC2)cc1 | inconclusive: 1.1 nM |
| COc1cccc(N2C(=O)C3CC=C(Cl)CC3C2=O)c1 (centres undefined) | inactive |
| CCOC(=O)c1c(C)oc2c1c(/C=N/c1ccccn1)c(O)c1ccccc12 | inactive |
| Cc1ccc(C)c(N2CCN(C(=O)C3CCN(c4nnc(N5CCCC5=O)s4)CC3)CC2)c1 | inconclusive: 1.3 nM |
| O=C(c1csnn1)N1CCC2(CCCN(Cc3ccccc3)C2)CC1 | inactive |
| C=CCN1C(=O)CN=C1NCc1ccccc1 | inconclusive: 1.1 nM |
| O=C(O)c1ccc(NS(=O)(=O)/C=C/c2ccccc2)cc1O | inconclusive: 1.3 nM |
| CC[C@@]1([N+](=O)[O-])C[C@H]2C=C[C@@H]1C2 | inactive |
| CCC(OC(=O)CC1Sc2ccccc2NC1=O)C(=O)NCC1CCCO1 (centres undefined) | inconclusive: 1.4 nM |
| C=CCN(CC=C)CC(O)Cn1c2ccccc2c2ccccc21 (centres undefined) | inconclusive: 2.7 nM |
| CC1CN(C(=O)Cc2ccc(-c3ccccc3)cc2)CC(C)O1 (centres undefined) | inconclusive: 1.3 nM |
| Cn1c(SCc2ccccc2)nnc1-c1cccs1 | inconclusive: 2 nM |
| Cc1ccc2c(c1)c1ncnc(N3CCOCC3)c1n2C | inconclusive: 1.4 nM |
| CCSc1nc2ccccc2n1CCC(=O)O | inconclusive: 1.1 nM |
| CC1=CCC(COC(=O)Nc2ccccc2)CC1 (centres undefined) | inconclusive: 2.1 nM |
| COCCn1c(=O)c(-c2cccs2)nc2cnc(N3CCNCC3)nc21 | inactive |
| O=C(NCCOc1ccccc1)c1ncn[nH]1 | inconclusive: 1.2 nM |
| CCC(C)c1ccc(O)c(NC(=O)c2ncn[nH]2)c1 (centres undefined) | inconclusive: 1.9 nM |
| CCCCC(=O)OCC(=O)Nc1ccc(OC(F)F)cc1 | inconclusive: 1.9 nM |
| Cc1nn(-c2ccccc2)c2nc(N)c(C#N)c(-c3ccc(F)cc3)c12 | inconclusive: 1.5 nM |
| CCN1C(=O)C2C(c3ccc(O)c(OC)c3)NC(C)(C(=O)OC)C2C1=O (centres undefined) | inconclusive: 2 nM |

| SMILES | max dye-equivalent concentration |
| --- | --- |
| Cc1cc(=O)oc2cc(OCCSCCN3CCOCC3)ccc12 | inconclusive: 1.1 nM |
| C1CCN(CC[C@@H]2CCCCN2)CC1 | inactive |
| COCCN(CC(=O)NCc1ccccc1)C(=O)CCC(=O)Nc1nccs1 | inconclusive: 1.3 nM |
| CC(C)NC(=O)N1CC[C@@]2(CCCN(C(=O)c3ccco3)C2)C1 | inactive |
| CSCC[C@H](NC(=O)Nc1ccc(C)cc1C)C(=O)O | inconclusive: 1.9 nM |
| O=c1c2cnn(-c3ccc(F)cc3)c2ncn1Cc1cccnc1 | inconclusive: 1.6 nM |
| CC(C)(C)NC(=O)CSc1nncn1NCc1ccccc1 | inconclusive: 1.5 nM |
| Cc1ccc(S(=O)(=O)NC(=O)OC23COCN2COC3)cc1 | inactive |
| COC(=O)c1[nH]c2cccc(OC)c2c1NC(=O)CN1CC2(C)CC1CC(C)(C)C2 (centres undefined) | inconclusive: 1.2 nM |
| Nc1ncnc2c1ncn2CCOc1ccccc1 | inconclusive: 1.9 nM |
| CC1CCN(c2ccc(C(=O)NCc3cccs3)cn2)CC1 | inconclusive: 1.2 nM |
| CCCCn1nnnc1SCC(=O)N1CCN(C(=O)c2ccco2)CC1 | inconclusive: 1.8 nM |
| CCOc1ccc(NC(=O)C2CCN(S(=O)(=O)c3c(C)n[nH]c3C)CC2)cc1 | inconclusive: 1.2 nM |
| Cc1ccc2cccc(SCC(=O)NCc3ccco3)c2n1 | inconclusive: 1.3 nM |
| COc1cc2c(C#N)c(N3CCOCC3)nc(N)c2c(N)n1 | inconclusive: 1.2 nM |
| Cc1ccc(Cn2c(CN3CC(C)OC(C)C3)nc3c2c(=O)[nH]c(=O)n3C)cc1 (centres undefined) | inconclusive: 2 nM |
| CCOc1ccccc1-n1c(COc2ccccc2)nnc1SCC(N)=O | inconclusive: 1.9 nM |
| O=C(CSc1nnc(NC(=O)C2CCC2)s1)Nc1ccc(N2CCOCC2)cc1 | inconclusive: 1.1 nM |
| CC(C)OCCCNc1nc2c(c(=O)n(Cc3ccccc3F)c(=O)n2C)n1C | inconclusive: 1.4 nM |
| O=C1NC(c2ccc3c(c2)OCO3)Nc2ccccc21 (centres undefined) | inconclusive: 1.2 nM |
| N#CC(C(=O)NCCc1ccccc1)c1nc2ccccc2nc1N1CCOCC1 (centres undefined) | inactive |
| Cc1cnc(C(=O)Nc2ccccc2C(=O)N2CCOCC2)cn1 | inconclusive: 1.5 nM |

Some of these compounds in order of formula weight, rising.

| SMILES | max dye-equivalent concentration |
| --- | --- |
| CC1=CCC(COC(=O)Nc2ccccc2)CC1 (centres undefined) | inconclusive: 2.1 nM |
| CCSc1nc2ccccc2n1CCC(=O)O | inconclusive: 1.1 nM |
| CCCCC(=O)OCC(=O)Nc1ccc(OC(F)F)cc1 | inconclusive: 1.9 nM |
